Data as given in the supplement of paper PMC10849652.
Some of the results follow.

Amino acid sequences for entries named in this document (tags omitted). A change or cut given only in a name is not applied to a line headed by its entry.
UniProt Q00839, whole entry, looked up: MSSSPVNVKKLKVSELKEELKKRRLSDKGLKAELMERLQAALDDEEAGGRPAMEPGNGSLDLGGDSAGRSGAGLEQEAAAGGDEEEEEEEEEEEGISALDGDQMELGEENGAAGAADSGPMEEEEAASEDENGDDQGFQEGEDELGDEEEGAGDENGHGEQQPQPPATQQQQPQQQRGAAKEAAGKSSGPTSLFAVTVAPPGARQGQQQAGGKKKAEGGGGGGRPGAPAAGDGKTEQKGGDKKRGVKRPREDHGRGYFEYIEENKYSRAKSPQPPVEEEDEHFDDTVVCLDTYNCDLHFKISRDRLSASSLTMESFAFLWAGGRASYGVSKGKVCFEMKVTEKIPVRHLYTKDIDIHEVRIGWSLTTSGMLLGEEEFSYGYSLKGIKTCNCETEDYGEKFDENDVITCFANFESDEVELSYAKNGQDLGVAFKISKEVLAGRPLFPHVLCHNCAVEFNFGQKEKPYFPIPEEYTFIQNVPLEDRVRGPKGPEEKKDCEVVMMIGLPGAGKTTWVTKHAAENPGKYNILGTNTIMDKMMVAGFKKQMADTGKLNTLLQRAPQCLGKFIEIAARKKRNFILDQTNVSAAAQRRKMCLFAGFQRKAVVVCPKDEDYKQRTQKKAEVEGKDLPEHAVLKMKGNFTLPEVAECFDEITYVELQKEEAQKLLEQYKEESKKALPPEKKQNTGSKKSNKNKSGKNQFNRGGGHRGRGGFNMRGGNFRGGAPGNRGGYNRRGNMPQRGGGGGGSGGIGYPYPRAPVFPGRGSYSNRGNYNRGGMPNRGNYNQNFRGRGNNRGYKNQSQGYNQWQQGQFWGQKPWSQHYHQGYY
UniProt Q9BTY7: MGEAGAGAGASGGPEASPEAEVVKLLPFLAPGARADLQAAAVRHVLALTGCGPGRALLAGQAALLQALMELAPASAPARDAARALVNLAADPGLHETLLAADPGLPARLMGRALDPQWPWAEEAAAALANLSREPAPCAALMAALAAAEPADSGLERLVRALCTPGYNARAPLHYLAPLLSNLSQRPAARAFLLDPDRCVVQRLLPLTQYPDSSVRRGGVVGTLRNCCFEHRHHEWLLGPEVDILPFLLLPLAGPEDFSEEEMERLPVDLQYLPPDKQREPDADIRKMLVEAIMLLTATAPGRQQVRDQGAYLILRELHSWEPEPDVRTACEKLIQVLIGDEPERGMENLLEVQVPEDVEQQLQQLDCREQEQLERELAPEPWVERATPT
UniProt P50747: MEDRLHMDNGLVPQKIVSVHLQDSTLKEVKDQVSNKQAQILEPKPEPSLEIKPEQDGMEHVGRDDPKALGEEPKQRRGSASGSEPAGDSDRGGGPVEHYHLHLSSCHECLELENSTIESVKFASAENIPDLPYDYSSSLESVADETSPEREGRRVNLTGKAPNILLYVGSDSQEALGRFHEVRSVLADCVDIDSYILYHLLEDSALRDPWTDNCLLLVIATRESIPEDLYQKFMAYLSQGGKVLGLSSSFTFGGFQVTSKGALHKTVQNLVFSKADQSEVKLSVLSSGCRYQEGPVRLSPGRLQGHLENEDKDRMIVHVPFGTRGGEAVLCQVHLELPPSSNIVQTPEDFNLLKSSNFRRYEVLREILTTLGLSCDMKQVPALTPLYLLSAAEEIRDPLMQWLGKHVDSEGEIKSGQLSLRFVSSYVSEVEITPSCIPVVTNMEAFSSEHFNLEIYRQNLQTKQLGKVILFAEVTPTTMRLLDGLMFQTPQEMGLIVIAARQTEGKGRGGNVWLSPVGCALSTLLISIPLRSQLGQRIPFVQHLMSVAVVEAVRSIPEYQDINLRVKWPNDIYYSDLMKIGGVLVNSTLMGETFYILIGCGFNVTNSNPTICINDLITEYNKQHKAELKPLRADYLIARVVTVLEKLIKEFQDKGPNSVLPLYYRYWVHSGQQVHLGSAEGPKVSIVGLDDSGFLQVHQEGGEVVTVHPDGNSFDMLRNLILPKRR
UniProt Q9UPZ3: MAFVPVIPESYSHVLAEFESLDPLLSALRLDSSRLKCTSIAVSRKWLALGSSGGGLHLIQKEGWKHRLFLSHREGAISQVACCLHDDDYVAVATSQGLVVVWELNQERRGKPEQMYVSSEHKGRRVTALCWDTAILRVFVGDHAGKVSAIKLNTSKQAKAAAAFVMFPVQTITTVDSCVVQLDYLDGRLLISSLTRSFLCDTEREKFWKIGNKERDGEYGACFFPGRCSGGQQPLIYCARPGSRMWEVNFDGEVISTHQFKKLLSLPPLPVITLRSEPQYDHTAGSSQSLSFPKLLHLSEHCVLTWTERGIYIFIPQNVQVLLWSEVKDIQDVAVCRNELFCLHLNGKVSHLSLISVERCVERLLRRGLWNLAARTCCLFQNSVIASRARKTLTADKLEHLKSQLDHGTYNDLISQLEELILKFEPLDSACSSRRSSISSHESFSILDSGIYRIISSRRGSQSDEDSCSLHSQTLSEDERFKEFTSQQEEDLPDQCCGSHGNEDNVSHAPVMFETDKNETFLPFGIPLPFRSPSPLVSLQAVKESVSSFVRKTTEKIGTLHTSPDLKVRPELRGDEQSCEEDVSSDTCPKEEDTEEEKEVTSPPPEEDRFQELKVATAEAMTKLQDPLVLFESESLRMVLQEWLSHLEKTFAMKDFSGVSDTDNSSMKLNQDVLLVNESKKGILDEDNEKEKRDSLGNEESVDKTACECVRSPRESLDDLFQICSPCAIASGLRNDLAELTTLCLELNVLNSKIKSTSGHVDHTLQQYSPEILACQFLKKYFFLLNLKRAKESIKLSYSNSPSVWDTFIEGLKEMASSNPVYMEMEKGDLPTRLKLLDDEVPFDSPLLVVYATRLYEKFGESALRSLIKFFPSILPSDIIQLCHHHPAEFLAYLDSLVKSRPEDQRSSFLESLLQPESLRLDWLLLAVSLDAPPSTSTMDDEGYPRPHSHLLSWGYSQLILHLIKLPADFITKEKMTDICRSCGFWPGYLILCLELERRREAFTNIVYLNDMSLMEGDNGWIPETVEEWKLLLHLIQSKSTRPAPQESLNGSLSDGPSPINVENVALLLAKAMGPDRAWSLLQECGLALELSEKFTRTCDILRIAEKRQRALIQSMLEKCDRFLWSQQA
UniProt Q53T59: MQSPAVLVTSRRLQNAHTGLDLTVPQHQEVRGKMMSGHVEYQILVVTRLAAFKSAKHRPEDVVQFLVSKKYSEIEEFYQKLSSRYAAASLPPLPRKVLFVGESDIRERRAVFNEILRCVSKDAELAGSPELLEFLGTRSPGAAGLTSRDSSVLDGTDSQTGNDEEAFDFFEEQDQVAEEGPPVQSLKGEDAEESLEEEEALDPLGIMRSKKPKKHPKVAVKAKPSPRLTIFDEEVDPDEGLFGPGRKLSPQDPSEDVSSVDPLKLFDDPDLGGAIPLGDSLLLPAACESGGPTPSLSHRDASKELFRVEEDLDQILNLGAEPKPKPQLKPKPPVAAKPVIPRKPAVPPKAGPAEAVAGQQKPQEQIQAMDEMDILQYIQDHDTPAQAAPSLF
UniProt Q9BYK8: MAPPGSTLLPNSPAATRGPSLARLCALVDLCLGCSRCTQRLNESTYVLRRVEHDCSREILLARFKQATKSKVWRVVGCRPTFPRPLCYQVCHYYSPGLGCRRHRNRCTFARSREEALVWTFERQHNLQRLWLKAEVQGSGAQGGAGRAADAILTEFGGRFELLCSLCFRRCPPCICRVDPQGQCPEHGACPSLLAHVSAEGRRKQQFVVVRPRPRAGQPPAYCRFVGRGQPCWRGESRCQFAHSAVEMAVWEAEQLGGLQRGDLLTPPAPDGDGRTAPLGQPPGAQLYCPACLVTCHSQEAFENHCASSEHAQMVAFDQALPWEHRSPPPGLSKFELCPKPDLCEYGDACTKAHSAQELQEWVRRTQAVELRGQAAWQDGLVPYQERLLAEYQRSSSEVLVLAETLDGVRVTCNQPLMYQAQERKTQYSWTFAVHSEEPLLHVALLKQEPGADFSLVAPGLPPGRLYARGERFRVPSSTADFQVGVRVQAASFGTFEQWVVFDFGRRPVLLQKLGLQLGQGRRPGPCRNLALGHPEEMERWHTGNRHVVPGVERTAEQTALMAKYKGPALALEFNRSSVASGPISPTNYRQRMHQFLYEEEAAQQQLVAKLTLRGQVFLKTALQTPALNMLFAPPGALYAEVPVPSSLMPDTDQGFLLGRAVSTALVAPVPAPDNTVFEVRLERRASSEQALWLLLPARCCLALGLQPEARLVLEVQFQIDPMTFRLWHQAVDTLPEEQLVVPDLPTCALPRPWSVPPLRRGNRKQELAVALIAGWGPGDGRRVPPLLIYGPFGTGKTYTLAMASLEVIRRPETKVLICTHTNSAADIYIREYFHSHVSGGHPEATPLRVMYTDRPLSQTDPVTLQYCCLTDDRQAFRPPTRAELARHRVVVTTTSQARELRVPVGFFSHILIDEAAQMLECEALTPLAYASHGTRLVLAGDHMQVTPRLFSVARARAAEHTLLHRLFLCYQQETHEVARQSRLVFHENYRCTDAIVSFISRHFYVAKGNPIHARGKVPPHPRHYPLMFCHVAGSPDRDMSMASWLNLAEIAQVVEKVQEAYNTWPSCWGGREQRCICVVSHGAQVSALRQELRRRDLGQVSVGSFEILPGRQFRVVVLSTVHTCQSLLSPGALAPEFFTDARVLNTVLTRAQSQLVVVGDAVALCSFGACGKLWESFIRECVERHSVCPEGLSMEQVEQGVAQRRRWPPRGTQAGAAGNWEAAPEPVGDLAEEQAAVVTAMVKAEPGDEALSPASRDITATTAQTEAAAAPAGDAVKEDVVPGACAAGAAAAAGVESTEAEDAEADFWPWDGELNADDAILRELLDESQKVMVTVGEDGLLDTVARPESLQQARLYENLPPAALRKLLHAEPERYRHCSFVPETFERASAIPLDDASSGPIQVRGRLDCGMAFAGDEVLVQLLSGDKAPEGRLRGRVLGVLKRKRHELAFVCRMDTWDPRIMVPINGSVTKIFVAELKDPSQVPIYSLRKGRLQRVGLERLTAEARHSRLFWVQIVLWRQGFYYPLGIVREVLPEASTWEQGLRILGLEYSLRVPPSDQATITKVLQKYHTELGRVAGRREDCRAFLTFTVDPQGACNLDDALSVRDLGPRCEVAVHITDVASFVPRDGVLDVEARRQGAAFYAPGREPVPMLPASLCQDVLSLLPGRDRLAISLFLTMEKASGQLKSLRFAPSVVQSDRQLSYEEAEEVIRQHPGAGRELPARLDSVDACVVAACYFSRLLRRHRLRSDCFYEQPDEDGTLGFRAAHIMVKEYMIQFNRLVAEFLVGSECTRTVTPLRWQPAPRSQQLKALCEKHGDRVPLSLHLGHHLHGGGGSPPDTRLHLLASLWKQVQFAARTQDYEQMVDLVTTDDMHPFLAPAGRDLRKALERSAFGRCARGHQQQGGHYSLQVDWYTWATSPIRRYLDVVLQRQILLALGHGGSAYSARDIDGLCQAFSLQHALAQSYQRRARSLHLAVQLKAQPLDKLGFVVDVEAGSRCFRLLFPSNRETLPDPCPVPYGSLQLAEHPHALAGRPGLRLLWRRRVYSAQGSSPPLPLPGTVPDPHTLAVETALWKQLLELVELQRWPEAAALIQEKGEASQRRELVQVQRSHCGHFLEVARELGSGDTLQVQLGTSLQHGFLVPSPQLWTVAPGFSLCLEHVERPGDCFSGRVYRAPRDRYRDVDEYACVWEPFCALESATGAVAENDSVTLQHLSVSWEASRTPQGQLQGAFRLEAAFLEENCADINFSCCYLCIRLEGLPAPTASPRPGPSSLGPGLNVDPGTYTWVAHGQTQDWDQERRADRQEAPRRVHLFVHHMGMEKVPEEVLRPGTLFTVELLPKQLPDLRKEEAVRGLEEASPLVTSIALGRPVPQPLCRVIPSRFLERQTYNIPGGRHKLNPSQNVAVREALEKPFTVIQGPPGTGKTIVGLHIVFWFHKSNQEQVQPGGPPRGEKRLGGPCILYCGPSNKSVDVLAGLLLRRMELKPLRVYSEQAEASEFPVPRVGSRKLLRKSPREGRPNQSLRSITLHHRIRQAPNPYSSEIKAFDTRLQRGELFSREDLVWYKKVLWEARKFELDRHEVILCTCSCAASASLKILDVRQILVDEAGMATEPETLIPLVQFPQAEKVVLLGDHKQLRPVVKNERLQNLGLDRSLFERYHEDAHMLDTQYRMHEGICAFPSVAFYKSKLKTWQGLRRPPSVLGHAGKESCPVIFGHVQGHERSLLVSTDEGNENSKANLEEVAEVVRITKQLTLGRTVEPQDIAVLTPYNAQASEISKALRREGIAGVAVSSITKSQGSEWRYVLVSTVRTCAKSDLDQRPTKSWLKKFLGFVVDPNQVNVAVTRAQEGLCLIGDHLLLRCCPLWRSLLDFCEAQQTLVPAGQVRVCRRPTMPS

How the values were obtained:
Test in all cases: log2 fold change, soluble protein after heating vs DMSO (PISA); higher = thermal stabilisation; K562 lysate, 10 uM; active = over 0.2 and 3.5 SD of the protein, either way, in both replicates (recomputed)
[1] = compound: NCC(=O)Nc1ccc(-n2nc(C(F)(F)F)cc2-c2ccc3c(ccc4ccccc43)c2)cc1
Method in brief: (§1)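 Log-two fold change in thermal stability relative to solvent controls is reported from duplicates. For each sample, crude K562 extract from dounce-homogenised pellets in PBS pH 7.4 with 1 mM MgCl2, at 1 mg/mL protein, was treated with 10 μM compound for 30 min. Aliquots heated for 3 min across 48°C-58°C were pooled, brought to 0.5% NP-40 at 4°C and cleared at 21,000xg for 90 min. The supernatant was quantified by TMTpro 16plex LC-MS/MS with channel sums equalised.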

vorinostat = compound: O=C(CCCCCCC(=O)Nc1ccccc1)NO [vorinostat]
Method in brief: as §1

silmitasertib = compound: O=C(O)c1ccc2c(c1)nc(Nc1cccc(Cl)c1)c1ccncc12 [silmitasertib]
Method in brief: as §1

[2] = compound: O=C1NC(=O)C(c2cnc3ccccn23)=C1c1cn2c3c(cc(F)cc13)CN(C(=O)N1CCCCC1)CC2
Method in brief: as §1

entospletinib = compound: c1cn2cc(-c3ccc4cn[nH]c4c3)nc(Nc3ccc(N4CCOCC4)cc3)c2n1 [entospletinib]
Method in brief: as §1

Measured: log2 fold change

HERC2 (UniProt O95714)
inactive: [1] 0.04 | vorinostat -0.006 | silmitasertib -0.076 | [2] -0.009 | entospletinib 0.014

HNRNPU (UniProt Q00839)
inactive: [1] -0.035 | vorinostat -0.087 | silmitasertib 0.021 | [2] -0.037 | entospletinib 0.019

HGH1 (UniProt Q9BTY7)
inactive: [1] -0.055 | vorinostat -0.207 | silmitasertib 0.076 | [2] 0.009 | entospletinib -0.023

HLCS (UniProt P50747)
inactive: [1] -0.048 | vorinostat -0.054 | silmitasertib -0.012 | [2] 0.004 | entospletinib 0.009

HEXB (UniProt P07686)
inactive: [1] 0.006 | vorinostat 0.075 | silmitasertib 0.017 | [2] -0.043 | entospletinib 0

HPS5 (UniProt Q9UPZ3)
inactive: [1] -0.049 | vorinostat 0.069 | silmitasertib 0.043 | [2] 0.042

Quoted from the results shown (two entries):
HEXB (UniProt P07686)
inactive: [1] 0.006 | vorinostat 0.075 | silmitasertib 0.017 | [2] -0.043 | entospletinib 0

HPS5 (UniProt Q9UPZ3)
inactive: [1] -0.049 | vorinostat 0.069 | silmitasertib 0.043 | [2] 0.042

Next part:

HS1BP3 (UniProt Q53T59)
inactive: [1] 0.03 | vorinostat 0.139 | silmitasertib -0.038 | [2] -0.027 | entospletinib -0.033

HNRNPH1 (UniProt P31943)
inactive: [1] -0.007 | vorinostat -0.172 | silmitasertib 0.016 | [2] -0.044 | entospletinib 0.056

HELZ2 (UniProt Q9BYK8)
inactive: [1] -0.115 | vorinostat 0.01 | silmitasertib 0.025 | [2] 0.055
